Test results from the supplement of paper PMC10032668.
Some of the results follow. The list holds hits alone, and they repeat only in part.

Protein sequences, listed by entry. Tags and fused reporters are not part of them.
CALR, P27797, UniProt P27797, whole entry: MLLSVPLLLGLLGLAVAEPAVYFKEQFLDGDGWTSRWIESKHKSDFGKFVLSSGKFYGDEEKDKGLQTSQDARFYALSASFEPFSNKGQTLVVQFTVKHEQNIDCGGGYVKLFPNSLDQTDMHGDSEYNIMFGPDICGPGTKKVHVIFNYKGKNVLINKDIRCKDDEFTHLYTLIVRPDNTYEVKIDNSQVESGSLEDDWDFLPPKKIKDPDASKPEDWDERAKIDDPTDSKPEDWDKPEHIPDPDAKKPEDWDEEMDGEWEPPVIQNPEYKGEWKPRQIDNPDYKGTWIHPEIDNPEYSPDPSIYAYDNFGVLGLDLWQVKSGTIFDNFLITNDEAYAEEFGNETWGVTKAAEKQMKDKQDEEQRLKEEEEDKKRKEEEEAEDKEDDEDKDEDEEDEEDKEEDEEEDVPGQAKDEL
RBBP7, Q16576, UniProt Q16576, whole entry: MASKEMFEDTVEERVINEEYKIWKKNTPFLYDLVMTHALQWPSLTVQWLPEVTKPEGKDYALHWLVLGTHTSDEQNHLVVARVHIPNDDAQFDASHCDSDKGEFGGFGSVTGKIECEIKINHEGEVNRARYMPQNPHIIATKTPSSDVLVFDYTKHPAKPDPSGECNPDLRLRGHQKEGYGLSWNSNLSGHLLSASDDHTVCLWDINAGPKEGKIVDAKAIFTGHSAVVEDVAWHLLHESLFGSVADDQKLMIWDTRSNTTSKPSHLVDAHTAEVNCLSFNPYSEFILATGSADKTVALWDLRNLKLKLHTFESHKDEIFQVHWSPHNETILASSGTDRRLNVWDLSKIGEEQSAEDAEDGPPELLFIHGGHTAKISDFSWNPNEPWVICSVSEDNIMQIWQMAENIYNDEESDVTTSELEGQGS
SRSF9, Q13242, UniProt Q13242, whole entry: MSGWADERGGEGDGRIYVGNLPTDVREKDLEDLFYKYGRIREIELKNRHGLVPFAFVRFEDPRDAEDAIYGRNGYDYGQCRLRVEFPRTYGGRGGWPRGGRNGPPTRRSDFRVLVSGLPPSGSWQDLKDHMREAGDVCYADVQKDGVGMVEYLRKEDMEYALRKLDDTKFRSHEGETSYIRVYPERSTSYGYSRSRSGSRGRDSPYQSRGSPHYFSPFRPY
TPM4, P67936, UniProt P67936, whole entry: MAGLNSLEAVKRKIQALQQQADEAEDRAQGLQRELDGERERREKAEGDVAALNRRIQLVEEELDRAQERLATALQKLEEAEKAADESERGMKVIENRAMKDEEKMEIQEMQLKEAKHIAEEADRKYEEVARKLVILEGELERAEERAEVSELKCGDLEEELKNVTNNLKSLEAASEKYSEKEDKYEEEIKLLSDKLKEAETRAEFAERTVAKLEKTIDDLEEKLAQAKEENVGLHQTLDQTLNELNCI

What was measured:
Test in all cases: PRISMA enrichment of interactor (LFQ) in peptide spot vs all other peptide spots (log2 fold change); higher = stronger / more specific binding of the interactor to the peptide
[1] = biological target: ABCD3, P28288
Method: (§1)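 PRISMA: 15-aa overlapping tiles (offset 8 aa) of 60 microproteins, plus SOS1/GLUT1 control peptides, were spot-synthesized on cellulose membranes in triplicate. Membranes were incubated with benzonase-treated HEK293T lysate, and bound proteins were identified by LC-MS/MS with LFQ. Enrichment is the log2 fold change of each protein in one spot versus all other spots. Only interactors passing the significance cutoff are listed.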

[2] = biological target: ASNS, P08243
Method: as §1

[3] = biological target: PPP1R2, P41236
Method: as §1

[4] = biological target: STAT3, P40763
Method: as §1

[5] = biological target: SYAP1, Q96A49
Method: as §1

[6] = biological target: ABCE1, P61221
Method: as §1

[7] = biological target: AHCY, P23526
Method: as §1

[8] = biological target: ATXN10, Q9UBB4
Method: as §1

[9] = biological target: CALR, P27797
Method: as §1

[10] = biological target: CYC1, P08574
Method: as §1

[11] = biological target: DCAF16, Q9NXF7
Method: as §1

[12] = biological target: DHX33, Q9H6R0
Method: as §1

[13] = biological target: GATAD2A, Q86YP4
Method: as §1

[14] = biological target: GMNN, O75496
Method: as §1

[15] = biological target: HSPH1, Q92598
Method: as §1

[16] = biological target: ILVBL, A1L0T0
Method: as §1

[17] = biological target: MRPL48, Q96GC5
Method: as §1

[18] = biological target: NCAPG, Q9BPX3
Method: as §1

[19] = biological target: NELFA, Q9H3P2
Method: as §1

[20] = biological target: PFN1, P07737
Method: as §1

[21] = biological target: PPP1CC, P36873
Method: as §1

[22] = biological target: UQCRFS1, P47985
Method: as §1

[23] = biological target: SETD1A, O15047
Method: as §1

[24] = biological target: SLC35B2, Q8TB61
Method: as §1

[25] = biological target: SNW1, Q13573
Method: as §1

[26] = biological target: TNRC6A, Q8NDV7
Method: as §1

[27] = biological target: UBAP2, Q5T6F2
Method: as §1

[28] = biological target: YWHAH, Q04917
Method: as §1

[29] = biological target: ZMPSTE24, O75844
Method: as §1

[30] = biological target: ZMYM4, Q5VZL5
Method: as §1

[31] = biological target: hCG_1984214
Method: as §1

[32] = biological target: BMS1, Q14692
Method: as §1

[33] = biological target: BYSL, Q13895
Method: as §1

[34] = biological target: CCAR1, Q8IX12
Method: as §1

[35] = biological target: CHD4, Q14839
Method: as §1

[36] = biological target: COL4A3BP, Q9Y5P4
Method: as §1

[37] = biological target: CRNKL1, Q9BZJ0
Method: as §1

[38] = biological target: EIF2AK2, P19525
Method: as §1

[39] = biological target: ELOVL1, Q9BW60
Method: as §1

[40] = biological target: FARP2, O94887
Method: as §1

[41] = biological target: FGA, P02671
Method: as §1

[42] = biological target: GCFC2, P16383
Method: as §1

[43] = biological target: GMPS, P49915
Method: as §1

[44] = biological target: HCFC1, P51610
Method: as §1

[45] = biological target: HNRNPDL, O14979
Method: as §1

[46] = biological target: LLPH, Q9BRT6
Method: as §1

[47] = biological target: MAP7D1, Q3KQU3
Method: as §1

[48] = biological target: NAA10, P41227
Method: as §1

[49] = biological target: NEPRO, Q6NW34
Method: as §1

[50] = biological target: PARK7, Q99497
Method: as §1

[51] = biological target: PGAM5, Q96HS1
Method: as §1

[52] = biological target: PPP1R14A, Q96A00
Method: as §1

[53] = biological target: QKI, Q96PU8
Method: as §1

[54] = biological target: RCC2, Q9P258
Method: as §1

[55] = biological target: RMDN3, Q96TC7
Method: as §1

[56] = biological target: RRP12, Q5JTH9
Method: as §1

[57] = biological target: RTF1, Q92541
Method: as §1

[58] = biological target: RTN4, Q9NQC3
Method: as §1

[59] = biological target: SEC22B, O75396
Method: as §1

[60] = biological target: SNX2, O60749
Method: as §1

[61] = biological target: TAF4, O00268
Method: as §1

[62] = biological target: TBCD, Q9BTW9
Method: as §1

[63] = biological target: TBL3, Q12788
Method: as §1

[64] = biological target: UQCR10, Q9UDW1
Method: as §1

[65] = biological target: ADNP, Q9H2P0
Method: as §1

[66] = biological target: AGBL5, Q8NDL9
Method: as §1

[67] = biological target: CASC3, O15234
Method: as §1

[68] = biological target: CIAO1, O76071
Method: as §1

[69] = biological target: CTNND1, O60716
Method: as §1

[70] = biological target: DAP3, P51398
Method: as §1

[71] = biological target: FKBP4, Q02790
Method: as §1

[72] = biological target: GNL2, Q13823
Method: as §1

[73] = biological target: HS2ST1, Q7LGA3
Method: as §1

[74] = biological target: LRRC40, Q9H9A6
Method: as §1

[75] = biological target: MAEA, Q7L5Y9
Method: as §1

[76] = biological target: MDC1, Q14676
Method: as §1

[77] = biological target: MRPS14, O60783
Method: as §1

[78] = biological target: NCAPD2, Q15021
Method: as §1

[79] = biological target: NUP93, Q8N1F7
Method: as §1

[80] = biological target: ODF2, Q5BJF6
Method: as §1

[81] = biological target: RBBP7, Q16576
Method: as §1

[82] = biological target: RIOK1, Q9BRS2
Method: as §1

[83] = biological target: RIOK2, Q9BVS4
Method: as §1

[84] = biological target: SERPINA1, P01009
Method: as §1

[85] = biological target: SMARCE1, Q969G3
Method: as §1

[86] = biological target: SRSF5, Q13243
Method: as §1

[87] = biological target: SRSF9, Q13242
Method: as §1

[88] = biological target: TAOK2, Q9UL54
Method: as §1

[89] = biological target: TPM4, P67936
Method: as §1

[90] = biological target: TRMT10C, Q7L0Y3
Method: as §1

[91] = biological target: XPO4, Q9C0E2
Method: as §1

[92] = biological target: YTHDF3, Q7Z739
Method: as §1

VRSMSPLTKVQKLAS [JPX]
PRISMA enrichment of interactor (log2) [1]: 4.88
PRISMA enrichment of interactor (log2) [2]: 5.35
PRISMA enrichment of interactor (log2) [3]: 4.28
PRISMA enrichment of interactor (log2) [4]: 4.12
PRISMA enrichment of interactor (log2) [5]: 6.08

VRRWAAAAARSSLRS [PARL]
PRISMA enrichment of interactor (log2) [6]: 4.58
PRISMA enrichment of interactor (log2) [7]: 5.62
PRISMA enrichment of interactor (log2) [8]: 5.77
PRISMA enrichment of interactor (log2) [9]: 6.61
PRISMA enrichment of interactor (log2) [10]: 6.23
PRISMA enrichment of interactor (log2) [11]: 3.88
PRISMA enrichment of interactor (log2) [12]: 4.53
PRISMA enrichment of interactor (log2) [13]: 7.11
PRISMA enrichment of interactor (log2) [14]: 6.03
PRISMA enrichment of interactor (log2) [15]: 4.54
PRISMA enrichment of interactor (log2) [16]: 3.78
PRISMA enrichment of interactor (log2) [17]: 3.92
PRISMA enrichment of interactor (log2) [18]: 4.4
PRISMA enrichment of interactor (log2) [19]: 3.92
PRISMA enrichment of interactor (log2) [20]: 4.66
PRISMA enrichment of interactor (log2) [21]: 4.31
PRISMA enrichment of interactor (log2) [22]: 6.34

CGTRHPSTSTSAPNT [THAP7]
PRISMA enrichment of interactor (log2) [23]: 4.6
PRISMA enrichment of interactor (log2) [24]: 4.23
PRISMA enrichment of interactor (log2) [25]: 5.66
PRISMA enrichment of interactor (log2) [26]: 4.19
PRISMA enrichment of interactor (log2) [27]: 4.91
PRISMA enrichment of interactor (log2) [28]: 4.24
PRISMA enrichment of interactor (log2) [29]: 6.38
PRISMA enrichment of interactor (log2) [30]: 3.94
PRISMA enrichment of interactor (log2) [31]: 4.97

VGSLTQLGPSRPVLG [LINC01560]
PRISMA enrichment of interactor (log2) [6]: 4.44
PRISMA enrichment of interactor (log2) [32]: 6.66
PRISMA enrichment of interactor (log2) [33]: 5.97
PRISMA enrichment of interactor (log2) [34]: 5.26
PRISMA enrichment of interactor (log2) [35]: 6.26
PRISMA enrichment of interactor (log2) [36]: 4.65
PRISMA enrichment of interactor (log2) [37]: 4.85
PRISMA enrichment of interactor (log2) [38]: 7.14
PRISMA enrichment of interactor (log2) [39]: 5.18
PRISMA enrichment of interactor (log2) [40]: 4.87
PRISMA enrichment of interactor (log2) [41]: 4.94
PRISMA enrichment of interactor (log2) [42]: 4.94
PRISMA enrichment of interactor (log2) [43]: 5.2
PRISMA enrichment of interactor (log2) [44]: 7.96
PRISMA enrichment of interactor (log2) [45]: 5.23
PRISMA enrichment of interactor (log2) [46]: 5.25
PRISMA enrichment of interactor (log2) [47]: 8.42
PRISMA enrichment of interactor (log2) [48]: 4.17
PRISMA enrichment of interactor (log2) [49]: 5.58
PRISMA enrichment of interactor (log2) [50]: 5.28
PRISMA enrichment of interactor (log2) [51]: 5.37
PRISMA enrichment of interactor (log2) [52]: 4.82
PRISMA enrichment of interactor (log2) [53]: 6.8
PRISMA enrichment of interactor (log2) [54]: 6.33
PRISMA enrichment of interactor (log2) [55]: 7.98
PRISMA enrichment of interactor (log2) [56]: 5.32
PRISMA enrichment of interactor (log2) [57]: 5.3
PRISMA enrichment of interactor (log2) [58]: 4.05
PRISMA enrichment of interactor (log2) [59]: 5.97
PRISMA enrichment of interactor (log2) [60]: 5.64
PRISMA enrichment of interactor (log2) [61]: 5.82
PRISMA enrichment of interactor (log2) [62]: 7.2
PRISMA enrichment of interactor (log2) [63]: 3.93
PRISMA enrichment of interactor (log2) [64]: 5.26

DIPEQDSLGLSNLQK [MKKS]
PRISMA enrichment of interactor (log2) [1]: 5.69
PRISMA enrichment of interactor (log2) [65]: 5.76
PRISMA enrichment of interactor (log2) [66]: 4.86
PRISMA enrichment of interactor (log2) [67]: 4.76
PRISMA enrichment of interactor (log2) [68]: 4.55
PRISMA enrichment of interactor (log2) [69]: 5.34
PRISMA enrichment of interactor (log2) [70]: 4.62
PRISMA enrichment of interactor (log2) [71]: 4.68
PRISMA enrichment of interactor (log2) [72]: 4.81
PRISMA enrichment of interactor (log2) [73]: 5.71
PRISMA enrichment of interactor (log2) [74]: 5.25
PRISMA enrichment of interactor (log2) [75]: 4.58
PRISMA enrichment of interactor (log2) [76]: 5.71
PRISMA enrichment of interactor (log2) [77]: 5.44
PRISMA enrichment of interactor (log2) [78]: 6.61
PRISMA enrichment of interactor (log2) [79]: 4.67
PRISMA enrichment of interactor (log2) [80]: 6.94
PRISMA enrichment of interactor (log2) [81]: 5.45
PRISMA enrichment of interactor (log2) [82]: 5.95
PRISMA enrichment of interactor (log2) [83]: 5.96
PRISMA enrichment of interactor (log2) [84]: 4.73
PRISMA enrichment of interactor (log2) [85]: 5.29
PRISMA enrichment of interactor (log2) [86]: 4.35
PRISMA enrichment of interactor (log2) [87]: 5.53
PRISMA enrichment of interactor (log2) [88]: 7.27
PRISMA enrichment of interactor (log2) [89]: 3.96
PRISMA enrichment of interactor (log2) [90]: 4.66
PRISMA enrichment of interactor (log2) [91]: 4.49
PRISMA enrichment of interactor (log2) [92]: 4.63
